Laboratory results from PubChem BioAssay AID1347076 (National Center for Advancing Translational Sciences (NCATS), 2019).
Values joined by “and” are separate entries in the source; they are usually repeats but may differ in a detail not shown here. Equal values may be shown once. The whole screen tested about 400,000 compounds, of which about 13,000 (3.2%) were called active. The shares of active, inactive and inconclusive entries below differ from those in the screen. Calls come from the whole dose curve; as a rule, active = well fitted cell-killing curve with a large enough effect; inconclusive = small, poorly fitted or top-dose-only effect, or effect the other way; inactive = flat fitted curve, though single readings scatter. Potencies of inconclusive entries are doubtful fits and often do not repeat.

Experiment: qHTS assay for MDR1-selective chemotherapeutics: Primary screen using the drug-selected MDR subline cells KB-V1; note: nearly all actives have a fitted effect of over 60% in size
Settings: KB-V1 MDR cells viability, CellTiter-Glo, 72 h; series mostly up to 46.1 µM
How it was run: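 KB-V1 cells (P-gp-expressing MDR subline of KB-3-1) in phenol-red-free DMEM with 10% FBS were exposed to library compounds over a concentration series for 72 h at 37 degrees C. Viability read by CellTiter-Glo luminescence; concentration-effect curves fitted after normalization.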
Potency is the fitted concentration of half-maximal effect.

SMILES | Potency
Cc1ccc(C)c(N2CCN(C(=O)c3ccc4c(c3)c(C)c(C)n4C)CC2)c1 | inactive
COc1ccc2sc(NC(=O)c3ccco3)nc2c1 | inconclusive: 20.6 µM [cytotoxic, single point]
CCOC(=O)c1csc(NC(=O)COc2ccc(Cl)cc2Cl)n1 | active: 23.1 µM
COc1ccccc1NC(=O)C(=O)N/N=C(\C)CC(=O)Nc1ccccn1 | inconclusive: 14.6 µM [rising, single point]
CCN(c1ccccc1)S(=O)(=O)c1ccc(Cl)nc1 | inactive
CC1(C)OCC(N)(CO)CO1 | inactive
CC(C)c1ccc(C2(C)NC(=O)N(CC(=O)NCC3COc4ccccc4O3)C2=O)cc1 (stereo unspecified) | active: 16.4 µM
CC1CN(c2ccc(C(F)(F)F)cc2[N+](=O)[O-])CCN1S(C)(=O)=O (stereo unspecified) | inactive
COC(=O)c1ccc(OC)c(CN2CCCN(Cc3ccc(C)cc3)S2(=O)=O)c1 | inactive
O=C1NNC(=O)C1c1ccccc1 | inactive
C=C(C)COc1ccc(-c2nc(N)ncc2Oc2ccccc2OCC)c(O)c1 | inconclusive: 14.6 µM [cytotoxic, single point]
Cc1ccccc1NC(=S)NCCC(c1ccccc1)c1ccccc1 | inconclusive: 20.6 µM [cytotoxic, partial curve, poor fit]
Cc1nc(C)c(C(=O)N(c2ccccc2F)C(C(=O)NCC2CCCO2)c2ccccc2)s1 (stereo unspecified) | inconclusive: 10.3 µM [cytotoxic, partial curve, poor fit]
O=C(NC(=O)c1ccncc1)NC(c1ccccc1)c1ccccc1 | inconclusive: 11.6 µM [cytotoxic, partial curve]
COc1cc2c(cc1OC)C(COc1ccc3c(C)cc(=O)oc3c1)N(C(=O)c1ccc(C)c(C)c1)CC2 (stereo unspecified) | inconclusive: 16.4 µM [rising, single point]
Cc1ccc(C(=O)Nc2cccc(NC(=O)CN3CCCCC3)c2)cc1 | inconclusive: 3.66 µM [cytotoxic, full curve]
S=C(Nc1ccc(Cl)cc1)c1nc2ccccc2[nH]1 | active: 5.17 µM
COCCn1c(SCC(=O)N2CCc3ccccc32)nc2c(c1=O)SC(C)C2 (stereo unspecified) | inactive
COc1ccc(Cl)cc1C(=O)NCC(c1ccc(N(C)C)cc1)N1CCOCC1 (stereo unspecified) | inactive
COc1cc(S(=O)(=O)N2CCCCC2)ccc1NC(=O)Cc1ccccc1 | inconclusive: 11.6 µM [cytotoxic, partial curve, poor fit]
Cc1oc2c(c1C(=O)Nc1ccc(Cl)cc1F)C1=NCCN1C=N2 | inactive
O=[N+]([O-])c1ccc(S(=O)(=O)Nc2cccc(-c3ccc(N4CCOCC4)nn3)c2)cc1 | inconclusive: 16.4 µM [cytotoxic, single point]
O=c1c2ccccc2ncn1-c1ccc(Cl)cc1Cl | inactive
O=C(COC(=O)c1nc(Cl)ccc1Cl)Nc1ccc(Cl)cn1 | inconclusive: 29.1 µM [rising, single point]

SMILES | Potency
O=C(Nc1cc(-c2ccccc2)nn1-c1ccccc1)c1ccccc1F | inactive
CCOC(=O)C1=C(CS(=O)(=O)c2ccccc2)NC(=O)NC1c1ccc(OC)c(OC)c1 (stereo unspecified) | inconclusive: 29.1 µM [rising, single point]
CC(C)c1ccc(NC(=O)c2cc(S(=O)(=O)N3CCCCC3)c[nH]2)cc1 | inconclusive: 18.4 µM [rising, partial curve]
Cc1cc(C)cc(N(CCC(=O)Nc2nnc(C3CC3)s2)S(=O)(=O)c2ccc(Cl)cc2)c1 | active: 8.2 µM
CCCNC(=O)[C@H](Cc1c[nH]c2ccccc12)NC(=O)c1ccccc1Cl | inconclusive: 18.4 µM [cytotoxic, single point]
Cc1cc(C)cc(Oc2nc(-c3ccccc3)cc(C)c2S(C)(=O)=O)c1 | inconclusive: 29.1 µM [cytotoxic, single point]
COc1cc2c(cc1OC)CN(C(=S)Nc1ccccc1)CC2 | inconclusive: 18.4 µM [cytotoxic, single point]
COC(=O)C1CCN(c2ccc(C(N)=O)cc2[N+](=O)[O-])CC1 | inconclusive: 20.6 µM [cytotoxic, single point]
O=C(CNc1cccc(S(=O)(=O)N2CCCC2)c1)Nc1cccc(F)c1 | inconclusive: 13 µM [cytotoxic, partial curve]
Cc1cc(C)nc(-n2nc(C)c3c(C(F)F)cc(C)nc32)n1 | inactive
COCCN(CCOC)S(=O)(=O)c1ccc(C(=O)Nc2sc3c(c2C(N)=O)CCCCC3)cc1 | active: 2.91 µM
COc1cccc(NC(=O)CCc2nc(-c3cc(OC)c(OC)c(OC)c3)no2)c1 | inactive
CC1CCCN(CCOc2ccc3ccccc3c2Br)C1 (stereo unspecified) | inconclusive: 20.6 µM [cytotoxic, single point]
Cn1nc(OC(=O)Nc2ccc(F)cc2)cc1C(F)(F)F | inconclusive: 25.9 µM [rising, partial curve, poor fit]
C[n+]1c2cc(N)ccc2cc2ccc(N)cc21 | active: 20.6 µM and active: 16.4 µM
Cn1c(=O)cc(SCC(=O)Nc2cccc(C#N)c2)c2ccc(Cl)cc21 | inactive
FC(F)(F)c1cc(Cl)c2nnc(-c3cccnc3)n2c1 | inconclusive: 0.0052 µM [rising, full curve, poor fit]
COc1ccc(C(C#N)=C2C=CC(=NO)C=C2)cc1 | inconclusive: 20.6 µM [cytotoxic, single point]
COc1ccc(C(=O)/C=C/C(=O)N(CC(=O)NC2CCCCC2)Cc2ccccc2OC)c(O)c1 | active: 14.6 µM
O=C(COc1ncnc2c(Cl)cc(Cl)cc12)Nc1cc([N+](=O)[O-])ccc1Cl | inactive
C[C@H](CO)N1C[C@H](C)[C@@H](CN(C)S(=O)(=O)c2ccc(F)cc2)Oc2ccc(NS(=O)(=O)c3ccccc3)cc2C1=O | inconclusive: 1.16 µM [cytotoxic, full curve, poor fit]
Cc1cccc(C(=O)NCC(=O)OCC(=O)c2cc(C)n(CC3CCCO3)c2C)c1 (stereo unspecified) | inactive
CC(C)CCN1C(=O)c2ccc(C(=O)Nc3ccccc3C(=O)O)cc2C1=O | inactive
O=C(c1cc(C(=O)NCCc2ccccc2)c(=O)n(CCc2ccccc2)c1)c1cc(Cl)ccc1O | active: 2.31 µM

SMILES | Potency
COC(=O)/C=c1/s/c(=C(/C#N)C(=O)N2CCOCC2)n(-c2ccccc2)c1=O | inconclusive: 20.6 µM [rising, single point]
Cc1cc(C(=O)NNC(=O)c2ccc(Cl)cc2)c2ccccc2n1 | inactive
COC(=O)C1=C(C)NC(C)=C(C(=O)O[C@@H]2CCCN(Cc3ccccc3)C2)[C@@H]1c1cccc([N+](=O)[O-])c1 | inconclusive: 9.2 µM [cytotoxic, partial curve]
COCCN(C(=O)CSc1nn(-c2ccc(F)cc2)c(=S)s1)c1c(N)n(CC(C)C)c(=O)[nH]c1=O | inconclusive: 18.4 µM [cytotoxic, partial curve, poor fit]
O=[N+]([O-])c1ccc(N2CCCC2)nc1N1CCCC1 | inconclusive: 16.4 µM [cytotoxic, single point]
C=CCn1cc(C(=O)NCc2ccc(Cl)cc2)c(=O)c2cc(S(=O)(=O)N(CC)CC)ccc21 | active: 18.4 µM
COc1ccc(S(=O)(=O)N2CCC(C(=O)N3CCc4ccccc4C3)CC2)cc1OC | active: 13 µM
COc1ccc(/C=N\NC(=O)COc2ccccc2)c(C(=O)O)c1OC | inactive
O=C(/C=C/c1cccc(F)c1)Nc1cc(S(=O)(=O)N2CCOCC2)ccc1N1CCCC1 | inactive
S=c1[nH]nc(C2CCCCC2)n1/N=C/c1ccc(Br)s1 | inactive
Cc1ccc(C(C#N)=Cc2ccc3c(c2)OCO3)cc1 | inconclusive: 18.4 µM [cytotoxic, partial curve, poor fit]
COc1ccc(C(=O)Nn2c(SCC(=O)NC3CCCC3)nc3ccccc3c2=O)cc1 | inactive
COc1cc(C(=O)NNC(=O)C2CSC3(C)CCC(=O)N23)cc(OC)c1OC (stereo unspecified) | inconclusive: 18.4 µM [rising, single point]
O=[N+]([O-])c1ccc(N/N=C/c2c[nH]c3ccccc23)cc1 | inconclusive: 29.1 µM [cytotoxic, single point]
NS(=O)(=O)c1ccc(CNC(=O)c2ccc3c(c2)OCO3)cc1 | inconclusive: 32.6 µM [rising, single point]
COc1ccc(N2CCN(C(=O)c3ccc(F)cc3)CC2)c([N+](=O)[O-])c1 | inconclusive: 18.4 µM [cytotoxic, single point]
O=C(CCS(=O)(=O)c1cc2c3c(c1)CCN3C(=O)CC2)NCc1ccc(Cl)cc1 | inconclusive: 23.1 µM [rising, partial curve]
O=C(NC1CCCCC1)C(C1CC1)n1c(=O)c(-c2ccccc2)nc2ccccc21 (stereo unspecified) | inconclusive: 3.66 µM [cytotoxic, full curve]
Cc1oc2c(O)c(O)ccc2c(=O)c1-c1ccccc1 | inconclusive: 20.6 µM [cytotoxic, partial curve, poor fit]
COc1cc(OC)c(C2=NOC(C(=O)N3CCc4ccccc4C3)C2)cc1Cl (stereo unspecified) | inconclusive: 11.2 µM [cytotoxic, partial curve]
Cn1c(CCC(=O)Nc2cc(S(C)(=O)=O)ccc2Cl)nc2cc(S(=O)(=O)N3CCOCC3)ccc21 | inactive
COc1cc(C(C[N+](=O)[O-])c2c(N)n(C)c(=O)n(C)c2=O)ccc1O (stereo unspecified) | inconclusive: 23.1 µM [cytotoxic, single point]
O=S(=O)(c1ccc(Oc2ccc(Cl)cc2)c(S(=O)(=O)N2CCCCC2)c1)N1CCCCC1 | active: 3.26 µM

Compounds from the list above with a CF3 group, in the order listed:
SMILES | Potency
CC1CN(c2ccc(C(F)(F)F)cc2[N+](=O)[O-])CCN1S(C)(=O)=O (stereo unspecified) | inactive
Cn1nc(OC(=O)Nc2ccc(F)cc2)cc1C(F)(F)F | inconclusive: 25.9 µM [rising, partial curve, poor fit]
FC(F)(F)c1cc(Cl)c2nnc(-c3cccnc3)n2c1 | inconclusive: 0.0052 µM [rising, full curve, poor fit]
